Assay [1] concerns the target T1, LASP1 (LIM and SH3 domain protein 1), endogenous (human (endogenous in A549)) (UniProt Q14847).
T1 sequence: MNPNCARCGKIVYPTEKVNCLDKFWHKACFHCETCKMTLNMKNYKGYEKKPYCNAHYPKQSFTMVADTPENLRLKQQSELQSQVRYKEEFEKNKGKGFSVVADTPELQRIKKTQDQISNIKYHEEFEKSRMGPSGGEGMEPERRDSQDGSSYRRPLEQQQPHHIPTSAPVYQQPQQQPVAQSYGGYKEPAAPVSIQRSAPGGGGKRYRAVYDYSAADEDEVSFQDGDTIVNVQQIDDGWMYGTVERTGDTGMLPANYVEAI
Kind of assay: co-IP; endogenous proteins of A549 lysate; IP with anti-LASP1 on Dynabeads, 2 h at 4 °C; IP-lysis buffer 25 mM Tris HCl pH 7.4, 150 mM NaCl, 1 mM EDTA, 1% NP-40, 1% glycerol; WB for CERS6.

In the next assay the target is T2, LASP1-FLAG, full-length (UniProt Q14847).
T2 sequence: T1 sequence
The assay is described as follows: co-IP; LASP1-FLAG full-length or truncated mutants overexpressed in A549; IP with anti-FLAG on Dynabeads; WB for endogenous CERS6.

The next assay concerns the target T3, CERS6-HA (UniProt Q6ZMG9).
T3 sequence: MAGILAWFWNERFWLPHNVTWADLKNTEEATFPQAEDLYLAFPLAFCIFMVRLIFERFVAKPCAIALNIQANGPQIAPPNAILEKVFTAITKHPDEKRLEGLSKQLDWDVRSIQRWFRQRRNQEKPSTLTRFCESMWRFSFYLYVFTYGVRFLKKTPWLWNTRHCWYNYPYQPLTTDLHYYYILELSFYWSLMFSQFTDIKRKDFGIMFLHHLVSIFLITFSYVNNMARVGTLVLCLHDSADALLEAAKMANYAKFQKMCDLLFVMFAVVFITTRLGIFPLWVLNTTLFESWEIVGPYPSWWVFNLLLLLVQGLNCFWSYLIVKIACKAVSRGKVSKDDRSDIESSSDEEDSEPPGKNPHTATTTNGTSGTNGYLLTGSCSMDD
The assay is described as follows: cross-linking + co-IP; crosslinking immunoprecipitation (CLIP): A549 cells overexpressing CERS6-HA, 1% formaldehyde in RPMI1640 for 5 min at RT, quenched with 125 mM glycine; IP with anti-CERS6 or anti-HA on Dynabeads; WB for LASP1.

No constants are given. Whether binding was seen depends on the method and setting. Binding seen in cells or lysates may run through a third protein. Some entries that bind do so weakly or less than the wild type. For part of these data: Tags and fused reporters may be left off the sequences shown.

B1: CERS6 (ceramide synthase 6), endogenous (protein, UniProt Q6ZMG9 1-384)
chain: T3 sequence
For the molecule B1, the binding entry in assay [1] is reported as “binds”; with LASP1-FLAG, full-length it was “binds”.

B2: LASP1 (LIM and SH3 domain protein 1), endogenous (protein, UniProt Q14847 1-261)
chain: T1 sequence
As for B2, the binding result with CERS6-HA is “binds”.

(Values after article PMC10216351.)
